Experimental data from the supplement of paper PMC12823440, “Inhibitors supercharge kinase turnover through native proteolytic circuits” (Nature, 2025).
Counter-ions that a name gives are not always drawn. Some of the results follow. The calls rarely recur for the same compound in another form.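 Kinases were expressed as nanoluciferase fusions in K562 cells and luminescence was read every 4 h between 2 and 18 h as percent of control, DMSO set to 100% and a positive control to 0%. A time point counts as decreased when the signal drops significantly (2 sigma). The hit call is the authors' own, does not follow from the count of time points alone, and its rule is not shown.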

Sequences of proteins named here, by UniProt entry; tags and fusion partners are left off. A change or cut given only in a name is not applied to a line headed by its entry.
UniProt Q15208: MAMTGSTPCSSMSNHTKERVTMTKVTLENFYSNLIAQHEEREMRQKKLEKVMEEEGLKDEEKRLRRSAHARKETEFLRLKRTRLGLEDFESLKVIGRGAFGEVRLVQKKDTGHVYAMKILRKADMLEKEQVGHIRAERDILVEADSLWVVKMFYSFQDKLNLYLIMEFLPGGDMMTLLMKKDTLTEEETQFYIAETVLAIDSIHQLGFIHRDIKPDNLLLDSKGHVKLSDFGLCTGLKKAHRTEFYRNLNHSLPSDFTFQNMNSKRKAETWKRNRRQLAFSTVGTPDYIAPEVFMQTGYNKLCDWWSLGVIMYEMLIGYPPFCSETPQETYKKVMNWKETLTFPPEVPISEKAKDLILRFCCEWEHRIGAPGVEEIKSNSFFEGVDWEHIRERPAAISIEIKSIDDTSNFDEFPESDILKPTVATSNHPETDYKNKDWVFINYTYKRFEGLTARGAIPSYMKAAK
UniProt P42680: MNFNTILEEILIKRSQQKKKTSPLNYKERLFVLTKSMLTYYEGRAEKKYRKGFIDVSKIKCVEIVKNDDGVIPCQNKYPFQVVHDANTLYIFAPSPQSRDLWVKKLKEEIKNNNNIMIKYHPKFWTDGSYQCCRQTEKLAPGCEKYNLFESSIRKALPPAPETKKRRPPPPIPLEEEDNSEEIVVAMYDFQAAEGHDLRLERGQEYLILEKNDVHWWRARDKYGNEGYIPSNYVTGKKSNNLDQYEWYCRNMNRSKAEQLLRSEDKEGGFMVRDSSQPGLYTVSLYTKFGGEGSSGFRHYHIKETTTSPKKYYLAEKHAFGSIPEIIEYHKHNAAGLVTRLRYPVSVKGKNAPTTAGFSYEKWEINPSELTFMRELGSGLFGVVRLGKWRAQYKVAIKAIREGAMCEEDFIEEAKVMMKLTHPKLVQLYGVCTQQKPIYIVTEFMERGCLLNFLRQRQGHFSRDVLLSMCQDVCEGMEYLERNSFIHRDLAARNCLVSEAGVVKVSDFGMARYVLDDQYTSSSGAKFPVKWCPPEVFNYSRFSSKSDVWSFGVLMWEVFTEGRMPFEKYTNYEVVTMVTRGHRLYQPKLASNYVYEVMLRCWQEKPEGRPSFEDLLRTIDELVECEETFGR
UniProt P29597: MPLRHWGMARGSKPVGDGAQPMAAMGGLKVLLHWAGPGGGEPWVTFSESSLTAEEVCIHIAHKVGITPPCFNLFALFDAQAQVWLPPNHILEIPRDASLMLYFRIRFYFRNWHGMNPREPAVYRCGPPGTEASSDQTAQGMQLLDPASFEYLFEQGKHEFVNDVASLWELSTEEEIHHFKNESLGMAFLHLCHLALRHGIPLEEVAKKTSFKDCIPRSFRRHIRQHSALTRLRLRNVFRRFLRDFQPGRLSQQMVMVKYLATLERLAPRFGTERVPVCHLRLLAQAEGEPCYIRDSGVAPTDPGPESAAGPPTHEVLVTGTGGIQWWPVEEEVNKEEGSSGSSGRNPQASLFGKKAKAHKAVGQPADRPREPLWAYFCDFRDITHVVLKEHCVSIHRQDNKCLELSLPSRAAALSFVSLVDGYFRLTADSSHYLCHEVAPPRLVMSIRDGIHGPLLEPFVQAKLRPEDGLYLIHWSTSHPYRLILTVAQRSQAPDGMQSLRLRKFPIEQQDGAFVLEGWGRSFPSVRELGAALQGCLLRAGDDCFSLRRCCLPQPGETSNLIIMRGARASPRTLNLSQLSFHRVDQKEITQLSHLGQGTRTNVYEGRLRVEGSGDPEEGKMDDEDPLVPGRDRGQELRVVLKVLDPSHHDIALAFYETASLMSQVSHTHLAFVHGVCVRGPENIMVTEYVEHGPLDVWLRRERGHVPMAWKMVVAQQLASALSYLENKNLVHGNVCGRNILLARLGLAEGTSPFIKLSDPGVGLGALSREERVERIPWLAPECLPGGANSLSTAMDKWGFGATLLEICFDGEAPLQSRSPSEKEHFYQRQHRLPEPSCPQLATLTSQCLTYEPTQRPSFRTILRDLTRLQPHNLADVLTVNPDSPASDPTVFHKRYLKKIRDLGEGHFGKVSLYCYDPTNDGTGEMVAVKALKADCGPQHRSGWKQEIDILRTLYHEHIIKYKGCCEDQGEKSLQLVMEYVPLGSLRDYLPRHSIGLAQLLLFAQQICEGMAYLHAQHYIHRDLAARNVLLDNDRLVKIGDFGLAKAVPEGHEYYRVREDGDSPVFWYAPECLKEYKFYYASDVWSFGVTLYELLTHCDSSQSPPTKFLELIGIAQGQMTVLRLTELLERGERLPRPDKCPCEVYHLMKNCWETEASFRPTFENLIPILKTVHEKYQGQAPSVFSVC
UniProt Q6PHR2: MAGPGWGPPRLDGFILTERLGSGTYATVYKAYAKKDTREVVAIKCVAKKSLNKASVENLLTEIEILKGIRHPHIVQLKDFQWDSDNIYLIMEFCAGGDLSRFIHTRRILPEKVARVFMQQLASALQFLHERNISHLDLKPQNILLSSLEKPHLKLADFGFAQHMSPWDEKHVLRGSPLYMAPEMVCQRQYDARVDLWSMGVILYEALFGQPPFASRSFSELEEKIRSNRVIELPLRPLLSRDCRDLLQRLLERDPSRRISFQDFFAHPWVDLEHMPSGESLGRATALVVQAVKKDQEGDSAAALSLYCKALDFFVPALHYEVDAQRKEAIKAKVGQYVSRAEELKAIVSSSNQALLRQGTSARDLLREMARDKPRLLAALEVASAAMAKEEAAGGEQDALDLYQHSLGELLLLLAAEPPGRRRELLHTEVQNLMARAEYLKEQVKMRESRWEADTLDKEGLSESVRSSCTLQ
UniProt P07947, whole entry, looked up: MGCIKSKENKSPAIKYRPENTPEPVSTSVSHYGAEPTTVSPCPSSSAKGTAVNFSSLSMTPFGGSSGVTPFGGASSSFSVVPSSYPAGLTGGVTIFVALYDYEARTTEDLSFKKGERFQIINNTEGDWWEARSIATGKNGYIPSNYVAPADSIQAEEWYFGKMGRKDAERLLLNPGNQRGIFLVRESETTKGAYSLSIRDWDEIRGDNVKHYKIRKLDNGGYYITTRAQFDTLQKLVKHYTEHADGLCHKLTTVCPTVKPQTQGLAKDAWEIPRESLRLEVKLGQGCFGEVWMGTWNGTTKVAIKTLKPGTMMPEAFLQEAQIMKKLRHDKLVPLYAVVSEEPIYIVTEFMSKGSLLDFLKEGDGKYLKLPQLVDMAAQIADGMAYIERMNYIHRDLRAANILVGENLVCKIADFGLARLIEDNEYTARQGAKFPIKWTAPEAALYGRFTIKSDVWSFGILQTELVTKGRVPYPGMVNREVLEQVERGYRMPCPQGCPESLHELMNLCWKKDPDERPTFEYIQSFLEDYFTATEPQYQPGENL
UniProt P43403: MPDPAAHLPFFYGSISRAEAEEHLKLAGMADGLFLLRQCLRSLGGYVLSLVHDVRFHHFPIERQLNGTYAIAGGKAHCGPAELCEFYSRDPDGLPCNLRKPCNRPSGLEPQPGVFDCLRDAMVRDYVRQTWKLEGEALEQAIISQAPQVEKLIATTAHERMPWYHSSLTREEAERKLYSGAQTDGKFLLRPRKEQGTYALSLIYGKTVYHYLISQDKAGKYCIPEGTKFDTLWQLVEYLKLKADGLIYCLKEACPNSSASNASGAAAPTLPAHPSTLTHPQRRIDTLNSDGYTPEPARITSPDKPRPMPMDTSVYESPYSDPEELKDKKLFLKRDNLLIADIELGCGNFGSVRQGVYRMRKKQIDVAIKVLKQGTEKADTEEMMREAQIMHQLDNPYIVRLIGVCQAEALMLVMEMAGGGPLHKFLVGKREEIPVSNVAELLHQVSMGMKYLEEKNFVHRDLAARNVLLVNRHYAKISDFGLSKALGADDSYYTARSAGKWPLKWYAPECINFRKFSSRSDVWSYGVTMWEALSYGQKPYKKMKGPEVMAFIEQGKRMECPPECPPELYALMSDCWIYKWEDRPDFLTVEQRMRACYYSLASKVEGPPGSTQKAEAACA
UniProt P11802: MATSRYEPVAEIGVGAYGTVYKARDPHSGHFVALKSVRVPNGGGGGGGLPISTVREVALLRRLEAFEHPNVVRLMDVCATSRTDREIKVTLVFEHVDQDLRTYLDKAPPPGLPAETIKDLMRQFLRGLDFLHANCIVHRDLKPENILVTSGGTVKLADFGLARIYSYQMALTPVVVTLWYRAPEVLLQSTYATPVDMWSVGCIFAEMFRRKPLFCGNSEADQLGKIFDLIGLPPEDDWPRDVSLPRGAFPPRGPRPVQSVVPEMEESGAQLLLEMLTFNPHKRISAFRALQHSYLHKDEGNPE
UniProt P50613: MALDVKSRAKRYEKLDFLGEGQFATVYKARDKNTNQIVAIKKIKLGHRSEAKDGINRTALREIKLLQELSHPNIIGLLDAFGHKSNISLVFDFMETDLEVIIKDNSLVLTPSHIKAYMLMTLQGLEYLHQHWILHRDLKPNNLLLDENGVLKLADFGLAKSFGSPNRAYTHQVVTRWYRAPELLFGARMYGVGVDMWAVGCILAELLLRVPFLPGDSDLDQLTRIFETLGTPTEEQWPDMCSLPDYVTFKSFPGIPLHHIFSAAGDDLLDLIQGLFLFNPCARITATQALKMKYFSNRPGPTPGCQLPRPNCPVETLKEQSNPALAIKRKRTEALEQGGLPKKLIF
UniProt P50750, whole entry: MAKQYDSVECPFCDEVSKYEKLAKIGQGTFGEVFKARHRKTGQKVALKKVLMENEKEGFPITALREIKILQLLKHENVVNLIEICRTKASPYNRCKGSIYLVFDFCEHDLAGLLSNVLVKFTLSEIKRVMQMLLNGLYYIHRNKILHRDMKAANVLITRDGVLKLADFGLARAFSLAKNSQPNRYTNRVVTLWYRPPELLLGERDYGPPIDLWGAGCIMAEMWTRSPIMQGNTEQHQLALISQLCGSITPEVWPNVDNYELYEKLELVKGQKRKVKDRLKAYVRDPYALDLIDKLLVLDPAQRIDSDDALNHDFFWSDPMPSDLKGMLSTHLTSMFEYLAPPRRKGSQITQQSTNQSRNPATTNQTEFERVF

Legend:
Conditions in all cases: K562, 2-18 h
STK38 = STK38 (UniProt Q15208); assay: kinase-Nluc reporter destabilization hit call (1 = scored as downregulated) (binary); higher = compound decreases kinase abundance
SYK = SYK (UniProt P43405); assay: as above
TEC = TEC (UniProt P42680); assay: as above
TYK2 = TYK2 (UniProt P29597); assay: as above
ULK3 = ULK3 (UniProt Q6PHR2); assay: as above
YES1 = YES1 (UniProt P07947); assay: as above
ZAK = ZAK (UniProt Q9NYL2); assay: as above
ZAP70 = ZAP70 (UniProt P43403); assay: as above
CDK4 = CDK4 (UniProt P11802); assay: number of time points (of 4; 2 h point missing) at which kinase-Nluc abundance scored as decreased, DMSO-normalised (count); higher = more persistent destabilization
CDK7 = CDK7 (UniProt P50613); assay: as above
CDK9 = CDK9 (UniProt P50750); assay: as above

N#CCC1(n2cc(-c3ncnc4[nH]ccc34)cn2)CN(C2CCN(C(=O)c3ccnc(C(F)(F)F)c3F)CC2)C1 [Itacitinib]
0: number of time points (CDK4; 10 µM) | number of time points (CDK7; 10 µM) | number of time points (CDK9; 10 µM)
inactive: kinase-Nluc reporter destabilization hit call (STK38; 10 µM) 0 | kinase-Nluc reporter destabilization hit call (SYK; 10 µM) 0 | kinase-Nluc reporter destabilization hit call (TEC; 10 µM) 0 | kinase-Nluc reporter destabilization hit call (TYK2; 10 µM) 0 | kinase-Nluc reporter destabilization hit call (ULK3; 10 µM) 0 | kinase-Nluc reporter destabilization hit call (YES1; 10 µM) 0 | kinase-Nluc reporter destabilization hit call (ZAK; 10 µM) 0 | kinase-Nluc reporter destabilization hit call (ZAP70; 10 µM) 0

COC(=O)[C@H](CC(C)C)NC(=O)c1ccc(NC[C@@H](N)CS)cc1-c1cccc2ccccc12 [GGTI298 (Trifluoroacetate)]
inactive: kinase-Nluc reporter destabilization hit call (STK38; 10 µM) 0 | kinase-Nluc reporter destabilization hit call (SYK; 10 µM) 0 | kinase-Nluc reporter destabilization hit call (TEC; 10 µM) 0 | kinase-Nluc reporter destabilization hit call (TYK2; 10 µM) 0 | kinase-Nluc reporter destabilization hit call (ULK3; 10 µM) 0 | kinase-Nluc reporter destabilization hit call (YES1; 10 µM) 0 | kinase-Nluc reporter destabilization hit call (ZAK; 10 µM) 0 | kinase-Nluc reporter destabilization hit call (ZAP70; 10 µM) 0
0: number of time points (CDK4; 10 µM) | number of time points (CDK7; 10 µM) | number of time points (CDK9; 10 µM)

Nc1ncnc2c1c(-c1ccc(Oc3ccccc3)cc1)nn2[C@@H]1CCCNC1 [IBT6A (hydrochloride)]
0: number of time points (CDK4; 2.5 µM) | number of time points (CDK7; 2.5 µM) | number of time points (CDK9; 2.5 µM)
inactive: kinase-Nluc reporter destabilization hit call (STK38; 2.5 µM) 0 | kinase-Nluc reporter destabilization hit call (SYK; 2.5 µM) 0 | kinase-Nluc reporter destabilization hit call (TEC; 2.5 µM) 0 | kinase-Nluc reporter destabilization hit call (TYK2; 2.5 µM) 0 | kinase-Nluc reporter destabilization hit call (ULK3; 2.5 µM) 0 | kinase-Nluc reporter destabilization hit call (YES1; 2.5 µM) 0 | kinase-Nluc reporter destabilization hit call (ZAK; 2.5 µM) 0 | kinase-Nluc reporter destabilization hit call (ZAP70; 2.5 µM) 0

CC(C)NC[C@@H](C(=O)N1CCN(c2ncnc3c2[C@H](C)C[C@H]3O)CC1)c1ccc(Cl)cc1 [Ipatasertib (dihydrochloride)]
0: number of time points (CDK4; 10 µM) | number of time points (CDK7; 10 µM) | number of time points (CDK9; 10 µM)
inactive: kinase-Nluc reporter destabilization hit call (STK38; 10 µM) 0 | kinase-Nluc reporter destabilization hit call (SYK; 10 µM) 0 | kinase-Nluc reporter destabilization hit call (TEC; 10 µM) 0 | kinase-Nluc reporter destabilization hit call (TYK2; 10 µM) 0 | kinase-Nluc reporter destabilization hit call (ULK3; 10 µM) 0 | kinase-Nluc reporter destabilization hit call (YES1; 10 µM) 0 | kinase-Nluc reporter destabilization hit call (ZAK; 10 µM) 0 | kinase-Nluc reporter destabilization hit call (ZAP70; 10 µM) 0

CN(C)C/C=C/C(=O)Nc1cc2c(Nc3ccc(F)c(Cl)c3)ncnc2cc1O[C@H]1CCOC1 [Afatinib (dimaleate)]
0: number of time points (CDK4; 2.5 µM) | number of time points (CDK7; 2.5 µM) | number of time points (CDK9; 2.5 µM)
inactive: kinase-Nluc reporter destabilization hit call (STK38; 2.5 µM) 0 | kinase-Nluc reporter destabilization hit call (SYK; 2.5 µM) 0 | kinase-Nluc reporter destabilization hit call (TEC; 2.5 µM) 0 | kinase-Nluc reporter destabilization hit call (TYK2; 2.5 µM) 0 | kinase-Nluc reporter destabilization hit call (ULK3; 2.5 µM) 0 | kinase-Nluc reporter destabilization hit call (YES1; 2.5 µM) 0 | kinase-Nluc reporter destabilization hit call (ZAK; 2.5 µM) 0 | kinase-Nluc reporter destabilization hit call (ZAP70; 2.5 µM) 0

C[C@H](Nc1cc(-c2cnn(C)c2)cc(Nc2cnccn2)n1)c1ccc(F)cc1 [Ilginatinib]
1: number of time points (CDK9; 2.5 µM)
0: number of time points (CDK4; 2.5 µM)
inactive: kinase-Nluc reporter destabilization hit call (STK38; 2.5 µM) 0 | kinase-Nluc reporter destabilization hit call (SYK; 2.5 µM) 0 | kinase-Nluc reporter destabilization hit call (TEC; 2.5 µM) 0 | kinase-Nluc reporter destabilization hit call (TYK2; 2.5 µM) 0 | kinase-Nluc reporter destabilization hit call (ULK3; 2.5 µM) 0 | kinase-Nluc reporter destabilization hit call (YES1; 2.5 µM) 0 | kinase-Nluc reporter destabilization hit call (ZAK; 2.5 µM) 0 | kinase-Nluc reporter destabilization hit call (ZAP70; 2.5 µM) 0
3: number of time points (CDK7; 2.5 µM)

COc1ccc(S(=O)(=O)N(CCO)c2ccccc2CN(C)C/C=C/c2ccc(Cl)cc2)cc1 [KN-93 (hydrochloride)]
inactive: kinase-Nluc reporter destabilization hit call (STK38; 2.5 µM) 0 | kinase-Nluc reporter destabilization hit call (SYK; 2.5 µM) 0 | kinase-Nluc reporter destabilization hit call (TEC; 2.5 µM) 0 | kinase-Nluc reporter destabilization hit call (TYK2; 2.5 µM) 0 | kinase-Nluc reporter destabilization hit call (ULK3; 2.5 µM) 0 | kinase-Nluc reporter destabilization hit call (YES1; 2.5 µM) 0 | kinase-Nluc reporter destabilization hit call (ZAK; 2.5 µM) 0 | kinase-Nluc reporter destabilization hit call (ZAP70; 2.5 µM) 0
0: number of time points (CDK4; 2.5 µM) | number of time points (CDK7; 2.5 µM) | number of time points (CDK9; 2.5 µM)

Two entries picked at random from those above, as already listed:
COC(=O)[C@H](CC(C)C)NC(=O)c1ccc(NC[C@@H](N)CS)cc1-c1cccc2ccccc12 [GGTI298 (Trifluoroacetate)]
inactive: kinase-Nluc reporter destabilization hit call (STK38; 10 µM) 0 | kinase-Nluc reporter destabilization hit call (SYK; 10 µM) 0 | kinase-Nluc reporter destabilization hit call (TEC; 10 µM) 0 | kinase-Nluc reporter destabilization hit call (TYK2; 10 µM) 0 | kinase-Nluc reporter destabilization hit call (ULK3; 10 µM) 0 | kinase-Nluc reporter destabilization hit call (YES1; 10 µM) 0 | kinase-Nluc reporter destabilization hit call (ZAK; 10 µM) 0 | kinase-Nluc reporter destabilization hit call (ZAP70; 10 µM) 0
0: number of time points (CDK4; 10 µM) | number of time points (CDK7; 10 µM) | number of time points (CDK9; 10 µM)

CC(C)NC[C@@H](C(=O)N1CCN(c2ncnc3c2[C@H](C)C[C@H]3O)CC1)c1ccc(Cl)cc1 [Ipatasertib (dihydrochloride)]
0: number of time points (CDK4; 10 µM) | number of time points (CDK7; 10 µM) | number of time points (CDK9; 10 µM)
inactive: kinase-Nluc reporter destabilization hit call (STK38; 10 µM) 0 | kinase-Nluc reporter destabilization hit call (SYK; 10 µM) 0 | kinase-Nluc reporter destabilization hit call (TEC; 10 µM) 0 | kinase-Nluc reporter destabilization hit call (TYK2; 10 µM) 0 | kinase-Nluc reporter destabilization hit call (ULK3; 10 µM) 0 | kinase-Nluc reporter destabilization hit call (YES1; 10 µM) 0 | kinase-Nluc reporter destabilization hit call (ZAK; 10 µM) 0 | kinase-Nluc reporter destabilization hit call (ZAP70; 10 µM) 0

Continuation:

COc1cc2nccc(Oc3ccc(NC(=O)C4(C(=O)Nc5ccc(F)cc5)CC4)cc3)c2cc1OC [Cabozantinib (S-malate)]
active: kinase-Nluc reporter destabilization hit call (ULK3; 10 µM) 1
inactive: kinase-Nluc reporter destabilization hit call (STK38; 10 µM) 0 | kinase-Nluc reporter destabilization hit call (SYK; 10 µM) 0 | kinase-Nluc reporter destabilization hit call (TEC; 10 µM) 0 | kinase-Nluc reporter destabilization hit call (TYK2; 10 µM) 0 | kinase-Nluc reporter destabilization hit call (YES1; 10 µM) 0 | kinase-Nluc reporter destabilization hit call (ZAK; 10 µM) 0 | kinase-Nluc reporter destabilization hit call (ZAP70; 10 µM) 0
0: number of time points (CDK4; 10 µM) | number of time points (CDK7; 10 µM) | number of time points (CDK9; 10 µM)

COc1cc2nccc(Oc3ccc(NC(=O)C4(C(=O)Nc5ccc(F)cc5)CC4)cc3)c2cc1OC [Cabozantinib]
inactive: kinase-Nluc reporter destabilization hit call (STK38; 2.5 µM) 0 | kinase-Nluc reporter destabilization hit call (SYK; 2.5 µM) 0 | kinase-Nluc reporter destabilization hit call (TEC; 2.5 µM) 0 | kinase-Nluc reporter destabilization hit call (TYK2; 2.5 µM) 0 | kinase-Nluc reporter destabilization hit call (ULK3; 2.5 µM) 0 | kinase-Nluc reporter destabilization hit call (YES1; 2.5 µM) 0 | kinase-Nluc reporter destabilization hit call (ZAK; 2.5 µM) 0 | kinase-Nluc reporter destabilization hit call (ZAP70; 2.5 µM) 0
3: number of time points (CDK7; 2.5 µM)
1: number of time points (CDK9; 2.5 µM)
0: number of time points (CDK4; 2.5 µM)

CC(C)(C)n1nc(-c2cccc3ccccc23)c2c(N)ncnc21 [1-Naphthyl PP1 (hydrochloride)]
inactive: kinase-Nluc reporter destabilization hit call (STK38; 10 µM) 0 | kinase-Nluc reporter destabilization hit call (SYK; 10 µM) 0 | kinase-Nluc reporter destabilization hit call (TEC; 10 µM) 0 | kinase-Nluc reporter destabilization hit call (TYK2; 10 µM) 0 | kinase-Nluc reporter destabilization hit call (ULK3; 10 µM) 0 | kinase-Nluc reporter destabilization hit call (YES1; 10 µM) 0 | kinase-Nluc reporter destabilization hit call (ZAK; 10 µM) 0 | kinase-Nluc reporter destabilization hit call (ZAP70; 10 µM) 0
0: number of time points (CDK4; 10 µM) | number of time points (CDK7; 10 µM) | number of time points (CDK9; 10 µM)

CCN(CC)Cc1ccc(OC)c(-c2cc3c(-c4ccc(C(=O)O)c(C(C)C)c4)ccnc3[nH]2)c1
0: number of time points (CDK4; 2.5 µM) | number of time points (CDK4; 10 µM) | number of time points (CDK7; 2.5 µM) | number of time points (CDK7; 10 µM) | number of time points (CDK9; 2.5 µM) | number of time points (CDK9; 10 µM)
inactive: kinase-Nluc reporter destabilization hit call (STK38; 2.5 µM) 0 | kinase-Nluc reporter destabilization hit call (STK38; 10 µM) 0 | kinase-Nluc reporter destabilization hit call (SYK; 2.5 µM) 0 | kinase-Nluc reporter destabilization hit call (SYK; 10 µM) 0 | kinase-Nluc reporter destabilization hit call (TEC; 2.5 µM) 0 | kinase-Nluc reporter destabilization hit call (TEC; 10 µM) 0 | kinase-Nluc reporter destabilization hit call (TYK2; 2.5 µM) 0 | kinase-Nluc reporter destabilization hit call (TYK2; 10 µM) 0 | kinase-Nluc reporter destabilization hit call (ULK3; 2.5 µM) 0 | kinase-Nluc reporter destabilization hit call (ULK3; 10 µM) 0 | kinase-Nluc reporter destabilization hit call (YES1; 2.5 µM) 0 | kinase-Nluc reporter destabilization hit call (YES1; 10 µM) 0 | kinase-Nluc reporter destabilization hit call (ZAK; 2.5 µM) 0 | kinase-Nluc reporter destabilization hit call (ZAK; 10 µM) 0 | kinase-Nluc reporter destabilization hit call (ZAP70; 2.5 µM) 0 | kinase-Nluc reporter destabilization hit call (ZAP70; 10 µM) 0

CCc1nc(C(N)=O)c(Nc2ccc(N3CCC(N4CCN(C)CC4)CC3)c(OC)c2)nc1NC1CCOCC1 [Gilteritinib hemifumarate]
0: number of time points (CDK4; 2 µM) | number of time points (CDK7; 2 µM) | number of time points (CDK9; 2 µM)
inactive: kinase-Nluc reporter destabilization hit call (STK38; 2 µM) 0 | kinase-Nluc reporter destabilization hit call (SYK; 2 µM) 0 | kinase-Nluc reporter destabilization hit call (TEC; 2 µM) 0 | kinase-Nluc reporter destabilization hit call (TYK2; 2 µM) 0 | kinase-Nluc reporter destabilization hit call (ULK3; 2 µM) 0 | kinase-Nluc reporter destabilization hit call (YES1; 2 µM) 0 | kinase-Nluc reporter destabilization hit call (ZAK; 2 µM) 0 | kinase-Nluc reporter destabilization hit call (ZAP70; 2 µM) 0

FC(F)(F)c1ccc(CNc2ccc(Cc3c[nH]c4ncc(Cl)cc34)cn2)cn1 [Pexidartinib]
0: number of time points (CDK4; 10 µM) | number of time points (CDK7; 10 µM) | number of time points (CDK9; 10 µM)
inactive: kinase-Nluc reporter destabilization hit call (STK38; 10 µM) 0 | kinase-Nluc reporter destabilization hit call (SYK; 10 µM) 0 | kinase-Nluc reporter destabilization hit call (TEC; 10 µM) 0 | kinase-Nluc reporter destabilization hit call (TYK2; 10 µM) 0 | kinase-Nluc reporter destabilization hit call (ULK3; 10 µM) 0 | kinase-Nluc reporter destabilization hit call (YES1; 10 µM) 0 | kinase-Nluc reporter destabilization hit call (ZAK; 10 µM) 0 | kinase-Nluc reporter destabilization hit call (ZAP70; 10 µM) 0
